According to publication PMC7927077, “Glucose-Binding of Periplasmic Protein GltB Activates GtrS-GltR Two-Component System in Pseudomonas aeruginosa” (Microorganisms, 2021):
No constants are given. Whether binding was seen depends on the method and setting. Binding seen in cells or lysates may run through a third protein. Here binding means that the protein was enriched with, or labelled near, the bait; the list need not be complete. Sequences can lack the tags named with a protein.

Target: GltB (endogenous, P. aeruginosa PAO1) (P. aeruginosa PAO1 (endogenous in PAO1))
Assay: affinity purification with mass spectrometry; the anti-GltB co-IP eluates of PAO1/p-gtrS-YFP, SDS-PAGE, trypsin, LC-MS/MS; background of the ΔgltB control sample excluded

B1: yellow fluorescent protein (YFP)-tagged GtrS (GtrS-YFP) (protein, UniProt Q9HZ47 1-473)
chain: MPRSLLGRMLLLTLLAVLVAQGLSSLFWLSHLRSSQREGLLTSSRSLAYSMAASVSYFRSLPLGYRPLVLDQLRSMGGTRFFVSLNDRPLEMRALPDTPNKQAVLEIVQDVLHQRLGKEVELQVEFVSPDELRLFNGALKLDELPRSWAHYALTLEPVNPPVLVTQIRIGESEWLYIASLMPAPYVSLEPEGLQPQQVLSIVFTSLLLLLFTGLLMHWQSRPLKRLARAARDLALGSPSAALEERGASELVEVARAFNTMHERIDRYLNERGQLFSAISHDLRTPITRLRLRVELLEDERLQEKFGRDLDELELLVKGALQCVKDTDIHENVESVDLNLLLQHIAEPYLADGRVEVVGRAAEPYPGKPLALKRCIGNLLDNALKYGERARLSLEDGPEAVVLHVDDDGPGVPEQRLEQIFEPRFRLSPRGQGYGLGLGIARNIAHTHGGEVSLQNRREGGLRVSLRLPRLGLE
binding: binds

B2: PilJ (endogenous, P. aeruginosa PAO1) (protein, UniProt P42257 1-682)
chain: MKKINAGNLFAGMRSSSVIAGLFIVLIVSIVLLFANFAYLNTQSNHDKQYIGHAGELRVLSQRIAKNATEAAAGKGEAFKLLKDARNDFEKRWNILVNGDESTSLPPSPEAVKPQMDVVQQDWDGLRKNADSILASEQTVLSLHQVASTLAETIPQLQVEYEEVVDILLENGAPADQVAVAQRQSLLAERILGSVNKVLAGDENSVQAADSFGRDASLFGRVLKGMQEGNAAMSISKVTNAEAVDRLNEIAELFEFVSGSVDEILETSPDLFQVREAANNIFSVSQTLLDKASQLADGFENLAGGRSINLFAGYALGALALASIILIGLVMVRETNRRLAETAEKNDRNQAAILRLLDEIADLADGDLTVAATVTEDFTGAIADSINYSIDQLRELVETINQTAVQVAAAAQETQSTAMHLAEASEHQAQEIAGASAAINEMAVSIDQVSANASESSAVAERSVAIANKGNEVVHNTITGMDNIREQIQDTSKRIKRLGESSQEIGDIVSLINDIADQTNILALNAAIQASMAGDAGRGFAVVADEVQRLAERSSAATKQIEALVKTIQTDTNEAVISMEQTTSEVVRGARLAQDAGVALEEIEKVSKTLAALIQNISNAARQQASSAGHISNTMNVIQEITSQTSAGTTATARSIGNLAKMASEMRNSVSGFKLPEGVEQA
binding: binds
